Data as given in PubChem BioAssay AID1347426 (Functional Genomics Laboratory (NCATS/FGL), 2020).
In all, about 31,000 sequences went through this assay and about 1,400 (4.5%) were called active.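 The calls were made as follows: active = median seed-adjusted z-score above 1 or below -1; inactive = the rest.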 This is one part of the list.

Experiment: Novel Modifiers of Survival Motor Neuron (SMN) Protein: Gene Identification via Genome-wide siRNA Screen;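 also: luminescence tracks full-length SMN protein made from the SMN2 reporter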
Details: HEK293T SMN2-luciferase reporter, siRNA knockdown, 72 h; actives lie on both sides
In short: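 Genome-wide siRNA screen (10418 genes, 3 siRNAs each, 1 pmol per well) by reverse transfection in HEK293T cells stably carrying an SMN2-luciferase reporter; luminescence after 72 hours, normalized to negative-control siRNA, log10-transformed, MAD-scored.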

Sequence | median seed-adjusted z-score
GCCUUGAACUGGGACAUAATT against DFFA | inactive: -0.494
GGUCUUUACUAGGUGUAUUTT against APPL1 | inactive: 0
AACACUACGUGGAACUUCUTT against TRPV4 | inactive: -0.73
GGCUAUUAACCGAAGCAAATT against TSPAN31 | active: -1.13
AGAGGAUGCAGAUUACGAATT against CACNG2 | inactive: 0.00759
GGCAUUGCCUAGAUGACAATT against RABIF | inactive: 0
CUUGGGACCUGUUUAGAGATT against PDX1 | inactive: 0
GUCUCAAUCUAAUAAGGAATT against TTLL1 | inactive: 0.322
GAGAGGUCUUUUUCCGAGUTT against BAX | inactive: -0.478
AAGUUGACAUUAUUGAACATT against EAF1 | inactive: -0.931
GAUCCUAUGUUCAAUCUAATT against DICER1 | inactive: 0.101
CAAUGUGGUGUAUAAUACATT against VNN2 | inactive: -0.583
CUGUACUUGUGAGAUAGAATT against LRRC17 | inactive: 0.0234
CGAUCUACUUGUCAUUGCATT against POLE2 | inactive: -0.584
CGAACUACACCUUCAGCUATT against ATF1 | inactive: -0.112
GAAUAUAGUCAGAUGUACATT against TRNAU1AP | inactive: 0.52
UCACCCUGAUGAUGCCUUATT against SLC7A3 | inactive: -0.537
UCUGGUCCGUGUGAAGAAATT against DFNB31 | inactive: -0.233
CCGUUACAUUUGAUUCAUUTT against PNPT1 | inactive: 0.0729
GAUUCGGAGGUAACAGUGATT against MPPED2 | inactive: 0.418
CGACUAUGCUUUGAGCUCUTT against SPAG4 | inactive: -0.219
GAAGAUGUUUGAUAGACAUTT against CLTCL1 | inactive: 0.341

Sequence | median seed-adjusted z-score
GACUGACUCGGGACAAAUATT against INPP5D | inactive: 0.0116
UCAACUGACUCAUACCUGUTT against KCNMB1 | inactive: -0.465
GGAAAAUCAUUAGGCGGUATT against ANK2 | inactive: 0
CCAUUCUUCAUUACCCAUATT against ZNF321 | inactive: -0.642
GAAAGGCUUUGACCAAUCUTT against ZNF319 | inactive: 0.256
CCUUUACCGUCUGUCCAGATT against CDC25C | inactive: 0.256
GCUAAAGAUUGAUAGUGAATT against ZC3H11A | inactive: -0.137
GCCUAGUUUUGACAACCAUTT against FLJ90650 | inactive: 0.427
GGAGGAAGAAUAAAUCUGATT against SLC13A3 | inactive: 0.0434
GCAGAUGGAUUUCGUAUUATT against RBM34 | inactive: 0
GAACUUGUUUCGCAAAUUUTT against RAPGEFL1 | inactive: 0.21
CCACAUGCAUUAUGCACUATT against GALC | inactive: 0
GGAGGAUACUUUAGAACAATT against NDC80 | inactive: 0.0855
GAUACCUCCUGAAAGACCATT against SH3KBP1 | inactive: -0.34
CAUCGUCCAUGACAAGUCATT against GTF2IRD1 | inactive: -0.282
GGAAUAAAGUUAUCAAGGATT against S1PR5 | inactive: 0.301
GAUCCGCUUUGAGAGCACATT against DHX34 | inactive: -0.269
UGCGCUACCUCUUCCUGAATT against LRG1 | inactive: 0.668
GUCUUACAGCUCACAAAGATT against ENTPD5 | inactive: -0.355
GACAUUUCAGUGCCGAGUATT against ATF2 | inactive: 0.424
CUGUCCUUCAAUUACCAAATT against TLR9 | inactive: -0.0834
GGACAUUAGUUAUUAAACUTT against PCDHA5 | inactive: 0.671

Sequence | median seed-adjusted z-score
GGGAAUGGUCGGUCACUAUTT against COX6B2 | inactive: -0.544
GGGUCACUGUUGCACUACCTT against NPFF | inactive: -0.631
CAUCACCGCUGGGUCCAAATT against FABP1 | inactive: -0.302
CUCUGAGGCUGUUAAAUCATT against THNSL2 | inactive: 0
GCUGCAGAAGGAACCUUGCTT against SCT | inactive: -0.454
CAUCCAUUAUGACCUGCUATT against ACO2 | active: -1.57
GUGGUGCAGUUCUUACGAATT against BAZ2B | inactive: -0.679
GAGUUCAAACAUCCAAUUUTT against GBP6 | inactive: -0.0703
GUUUCAGAUUAUACCGAAATT against DPM1 | inactive: -0.214
UCACCACCGUGUCUAAGAATT against MPO | inactive: -0.223
GCCGAACUAUCUGAGAAUATT against PCDH1 | inactive: -0.514
CCAUCAACAUCGCAGAUGATT against ABHD11 | inactive: -0.189
AGCACGAGCUGAAACUGCUTT against SLC4A2 | inactive: -0.539
GGUGAAUGUUUACGAAACATT against FUT10 | inactive: -0.629
GGCUUAACCUGGUGAUAAATT against GLUD1 | inactive: 0.156
UUUCCUAUCUGGAACCGAATT against SFXN2 | inactive: 0.365
AGUGCAAUGUGGAUAUUUATT against CHST7 | inactive: 0
GCACCGGUAGUAAACAUAUTT against CYP4Z1 | inactive: -0.139
CAAUCACUCAGGAACAAAUTT against CHMP6 | active: -1.81
GGAAAUGCGGACUAUAUUATT against PHF15 | inactive: 0
GGGUACUAUGUAGAGAAGATT against PFDN5 | inactive: 0.562
GGAGCAGUAUGCUAAGCGATT against PIP4K2C | inactive: 0.27

Looked up one by one from the entries so far, two records:
Sequence | median seed-adjusted z-score
GGGUACUAUGUAGAGAAGATT against PFDN5 | inactive: 0.562
GGUGAAUGUUUACGAAACATT against FUT10 | inactive: -0.629

Copied from the list.
median seed-adjusted z-score, GUGGUGCAGUUCUUACGAATT against BAZ2B is entered as inactive: -0.679
median seed-adjusted z-score, GGCUUAACCUGGUGAUAAATT against GLUD1 is entered as inactive: 0.156
median seed-adjusted z-score, CAUCACCGCUGGGUCCAAATT against FABP1 is entered as inactive: -0.302
median seed-adjusted z-score, GGUGAAUGUUUACGAAACATT against FUT10 is entered as inactive: -0.629
median seed-adjusted z-score, GGGUACUAUGUAGAGAAGATT against PFDN5 is entered as inactive: 0.562
median seed-adjusted z-score, CCAUCAACAUCGCAGAUGATT against ABHD11 is entered as inactive: -0.189

More records follow.

Sequence | median seed-adjusted z-score
CGAUUUGUACAAAAACGAUTT against DTNB | inactive: -0.142
CGCACAGUGCCUAACCCUATT against RAB26 | inactive: 0.171
GAAGAUCUCUGUGAGAAGATT against LRRC47 | inactive: 0.00856
GCGAGUGGUUGGACAGAUATT against GPR128 | inactive: -0.208
CGACUACUGCACAUCCAAATT against DHRS3 | inactive: 0.175
GGCUUUACAUUCCUAAAGATT against SKIV2L2 | inactive: 0.642
CCCUUAAACUGGUUACAUATT against PIGB | inactive: 0.199
GCCUGACCAUCGUGAGCAATT against APC2 | inactive: 0.00354
GGCCUGUUCUCCAUCUACATT against TCIRG1 | inactive: 0.123
GCAUUACAAAGAAUUUCGATT against BMP5 | inactive: 0.0733
GGAGCUCUGUAAUACACCUTT against DCHS2 | inactive: 0
GGGCCUAUACUAUCACCAUTT against ITIH5L | inactive: -0.407
GCAUCAUGAUGGGUCCCAATT against CATSPER1 | inactive: 0.655
GGAAUAGAUUUAACGGCUATT against SLC22A10 | inactive: -0.0897
CCUCGUUAUGAAGAACUAUTT against PINK1 | inactive: 0.192
GGAUGAUGCUUUUGCUGGATT against LGI2 | inactive: 0
GGAGGGCAUUGUCACUAAATT against MCM3 | inactive: 0.339
GCAUAUUUGUAGUGAACGATT against PJA2 | inactive: 0
GGAGAGUUAUGUGGAGUAATT against AFM | inactive: 0
AGUGCGUCAUCCUAAGGAATT against WDR1 | inactive: -0.457
GAUCAACGGUGGAUUUGGUTT against AMDHD2 | inactive: -0.0707
AGUAUUUCAUUGUUGCAGATT against NAT5 | inactive: -0.0124

Sequence | median seed-adjusted z-score
GGUCCUGUUUGAGACAGUATT against AP1G2 | inactive: 0.0657
GCUCAUCUGUGACCUACGATT against GLB1 | inactive: -0.543
UCGUGGACCUGGUCUGUUATT against OGDHL | inactive: -0.0878
GGAUGCACCAGACACCUAUTT against DNASE1 | inactive: -0.35
GUUAUUUGCUAAUUAGAUATT against GJB2 | inactive: -0.408
GCAAUUAACAAUUAUCGAUTT against RNASE3 | inactive: 0.588
GGCUAGAGUUGCAACUACATT against EPRS | inactive: -0.391
GCGCACAACUCACCCUUUATT against TYRP1 | inactive: 0.173
AAGGAGCAGUGGAUACUGATT against MST1 | active: -1.47
CUGCAGGAAGGCUCAUAAATT against GNPTG | inactive: -0.401
GCACGAAGGUCCAAGUCCATT against SFRS2 | inactive: 0.263
CCAUCGACUACAAACGGAATT against NDUFA13 | inactive: -0.138
GAUCCACACUUCAACGAUATT against CSNK2A2 | inactive: -0.155
CGGCCGCUCUAUAAGCUGATT against LLGL1 | active: -1.13
GCAUAAAUGAAAUCUCGGATT against ZMYND8 | inactive: -0.065
CAACCAAUAUAGAACUUCATT against RBBP5 | inactive: 0.169
GCGUUGGUCGGGAUGAUUATT against P2RY10 | inactive: -0.432
CAAUCAACCUGUUAAGCUUTT against TXNL1 | inactive: -0.554
GUUAGUAUUUUUACGAGAATT against ZNF645 | inactive: 0.079
GCAUGGAAAUCAACAUCCUTT against CCNB3 | inactive: 0
